In publication PMC11790156:
These are yes or no findings as the source states them, for the method shown. For some of these results: Binding seen in cells or lysates may run through a third protein. Some entries that bind do so weakly or less than the wild type. For some of these results: Where a sequence is shown, tags or fusion partners need not be part of it.

By UniProt entry, the sequences of proteins in these tests, tags left out. Where a name states a change or a piece, a line headed by the entry shows the natural chain unless it says otherwise.
UniProt Q96P20: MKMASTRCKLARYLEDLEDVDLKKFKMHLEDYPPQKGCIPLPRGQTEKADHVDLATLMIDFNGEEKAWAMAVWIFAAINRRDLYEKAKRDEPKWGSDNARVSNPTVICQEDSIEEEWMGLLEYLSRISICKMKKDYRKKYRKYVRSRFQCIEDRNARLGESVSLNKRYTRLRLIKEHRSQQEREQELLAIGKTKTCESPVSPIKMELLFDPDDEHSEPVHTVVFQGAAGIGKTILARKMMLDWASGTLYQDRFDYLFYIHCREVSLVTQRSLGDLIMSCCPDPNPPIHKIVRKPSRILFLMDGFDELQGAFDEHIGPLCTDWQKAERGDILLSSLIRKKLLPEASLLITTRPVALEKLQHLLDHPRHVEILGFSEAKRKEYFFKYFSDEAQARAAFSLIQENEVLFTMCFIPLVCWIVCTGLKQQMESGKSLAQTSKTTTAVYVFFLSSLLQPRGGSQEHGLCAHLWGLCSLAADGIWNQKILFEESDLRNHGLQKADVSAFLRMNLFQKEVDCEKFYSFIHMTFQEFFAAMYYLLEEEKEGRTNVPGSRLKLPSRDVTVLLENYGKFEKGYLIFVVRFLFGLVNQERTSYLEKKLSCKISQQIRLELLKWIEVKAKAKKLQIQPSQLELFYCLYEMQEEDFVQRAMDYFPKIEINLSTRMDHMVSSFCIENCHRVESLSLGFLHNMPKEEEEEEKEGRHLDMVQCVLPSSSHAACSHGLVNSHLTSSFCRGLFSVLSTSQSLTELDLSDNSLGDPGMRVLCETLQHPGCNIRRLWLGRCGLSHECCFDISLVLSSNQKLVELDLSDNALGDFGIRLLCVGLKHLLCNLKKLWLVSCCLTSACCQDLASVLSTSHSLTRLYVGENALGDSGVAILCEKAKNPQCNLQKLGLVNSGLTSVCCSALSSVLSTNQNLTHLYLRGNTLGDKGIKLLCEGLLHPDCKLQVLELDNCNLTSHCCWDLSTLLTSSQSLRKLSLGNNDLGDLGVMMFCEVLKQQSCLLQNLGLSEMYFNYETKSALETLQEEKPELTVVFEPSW
UniProt Q96CV9: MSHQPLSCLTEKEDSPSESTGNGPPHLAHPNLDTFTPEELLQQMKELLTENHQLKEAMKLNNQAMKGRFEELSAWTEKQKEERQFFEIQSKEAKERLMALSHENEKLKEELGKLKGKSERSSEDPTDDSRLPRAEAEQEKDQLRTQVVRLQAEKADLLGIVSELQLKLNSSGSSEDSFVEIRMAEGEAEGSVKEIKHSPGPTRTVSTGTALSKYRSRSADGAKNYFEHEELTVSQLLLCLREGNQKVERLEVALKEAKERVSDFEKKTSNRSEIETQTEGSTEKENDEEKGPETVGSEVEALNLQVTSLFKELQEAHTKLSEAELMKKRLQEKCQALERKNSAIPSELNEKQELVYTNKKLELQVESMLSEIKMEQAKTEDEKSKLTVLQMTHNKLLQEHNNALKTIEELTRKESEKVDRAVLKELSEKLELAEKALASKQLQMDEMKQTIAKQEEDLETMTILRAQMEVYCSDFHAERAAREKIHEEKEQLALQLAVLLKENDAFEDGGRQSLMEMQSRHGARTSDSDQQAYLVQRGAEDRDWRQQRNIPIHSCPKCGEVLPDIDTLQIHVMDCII
UniProt Q8K3K8: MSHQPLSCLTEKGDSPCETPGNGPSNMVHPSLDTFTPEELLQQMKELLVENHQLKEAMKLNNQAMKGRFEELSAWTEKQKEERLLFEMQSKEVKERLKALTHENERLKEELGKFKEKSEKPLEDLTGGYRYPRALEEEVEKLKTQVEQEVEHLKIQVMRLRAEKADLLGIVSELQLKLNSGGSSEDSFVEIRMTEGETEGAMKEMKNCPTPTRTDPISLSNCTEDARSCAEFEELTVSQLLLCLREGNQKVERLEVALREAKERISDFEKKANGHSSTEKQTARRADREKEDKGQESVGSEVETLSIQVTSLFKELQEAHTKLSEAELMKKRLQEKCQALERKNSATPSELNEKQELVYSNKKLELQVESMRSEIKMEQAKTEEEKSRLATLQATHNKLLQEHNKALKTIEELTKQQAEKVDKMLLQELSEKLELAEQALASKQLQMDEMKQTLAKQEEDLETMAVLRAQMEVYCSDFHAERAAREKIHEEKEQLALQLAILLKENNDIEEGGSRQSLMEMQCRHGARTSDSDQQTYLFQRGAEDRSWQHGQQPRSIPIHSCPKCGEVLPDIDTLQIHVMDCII
UniProt Q8R4B8: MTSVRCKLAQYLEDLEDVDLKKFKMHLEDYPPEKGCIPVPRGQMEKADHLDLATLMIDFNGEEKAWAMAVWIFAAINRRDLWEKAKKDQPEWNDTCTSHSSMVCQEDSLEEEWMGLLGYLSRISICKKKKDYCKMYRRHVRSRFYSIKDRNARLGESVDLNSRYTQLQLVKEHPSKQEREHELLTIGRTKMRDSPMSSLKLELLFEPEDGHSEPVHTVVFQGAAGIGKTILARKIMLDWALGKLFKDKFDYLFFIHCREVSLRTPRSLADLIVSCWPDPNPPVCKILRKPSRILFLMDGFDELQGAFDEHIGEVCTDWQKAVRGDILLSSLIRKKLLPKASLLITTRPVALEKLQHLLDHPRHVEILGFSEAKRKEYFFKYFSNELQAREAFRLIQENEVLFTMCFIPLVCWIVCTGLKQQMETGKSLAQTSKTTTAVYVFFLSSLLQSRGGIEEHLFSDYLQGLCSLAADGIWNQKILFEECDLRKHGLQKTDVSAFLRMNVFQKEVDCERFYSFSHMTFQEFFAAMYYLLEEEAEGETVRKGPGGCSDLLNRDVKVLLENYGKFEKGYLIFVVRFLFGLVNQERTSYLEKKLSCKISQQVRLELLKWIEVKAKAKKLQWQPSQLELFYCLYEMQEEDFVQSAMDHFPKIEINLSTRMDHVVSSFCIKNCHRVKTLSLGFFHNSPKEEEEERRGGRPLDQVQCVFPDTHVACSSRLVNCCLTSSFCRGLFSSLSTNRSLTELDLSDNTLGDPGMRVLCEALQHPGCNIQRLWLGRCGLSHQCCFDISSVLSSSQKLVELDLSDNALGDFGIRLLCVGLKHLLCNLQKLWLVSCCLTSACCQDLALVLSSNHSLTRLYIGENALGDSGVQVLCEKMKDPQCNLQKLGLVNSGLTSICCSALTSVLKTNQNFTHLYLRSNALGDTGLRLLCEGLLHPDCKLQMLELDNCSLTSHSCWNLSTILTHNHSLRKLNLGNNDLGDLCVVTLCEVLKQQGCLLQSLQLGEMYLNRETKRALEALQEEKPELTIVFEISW

Columns and labels:
Flag-VANGL2 [1] = molecular target: T1, Flag-VANGL2 (UniProt Q9ULK5); assay: co-IP; in vitro binding: Flag-tagged proteins purified from HEK293T (anti-Flag beads, 500 mM NaCl wash, Flag peptide elution) incubated at 37°C for 1 h, then IP (anti-VANGL2 antibody in Fig 3C) and immunoblot; both purified
T1 sequence: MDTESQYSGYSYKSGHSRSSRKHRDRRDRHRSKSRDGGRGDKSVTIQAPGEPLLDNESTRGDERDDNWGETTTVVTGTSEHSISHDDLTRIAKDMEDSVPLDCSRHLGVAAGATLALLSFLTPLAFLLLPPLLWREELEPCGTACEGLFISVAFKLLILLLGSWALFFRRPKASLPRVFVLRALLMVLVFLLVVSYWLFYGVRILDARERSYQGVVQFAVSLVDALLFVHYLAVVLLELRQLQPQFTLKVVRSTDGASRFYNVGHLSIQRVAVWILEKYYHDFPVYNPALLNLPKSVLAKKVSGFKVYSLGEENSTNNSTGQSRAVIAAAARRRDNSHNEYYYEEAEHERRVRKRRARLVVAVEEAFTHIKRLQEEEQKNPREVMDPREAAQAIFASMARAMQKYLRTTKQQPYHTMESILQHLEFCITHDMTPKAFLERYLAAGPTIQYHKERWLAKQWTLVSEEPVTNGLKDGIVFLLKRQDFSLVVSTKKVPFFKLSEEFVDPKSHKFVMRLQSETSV

[2] = molecular target: T2, Flag-MARCH8 (recombinant, purified) (UniProt Q5T0T0); assay: as above
T2 sequence: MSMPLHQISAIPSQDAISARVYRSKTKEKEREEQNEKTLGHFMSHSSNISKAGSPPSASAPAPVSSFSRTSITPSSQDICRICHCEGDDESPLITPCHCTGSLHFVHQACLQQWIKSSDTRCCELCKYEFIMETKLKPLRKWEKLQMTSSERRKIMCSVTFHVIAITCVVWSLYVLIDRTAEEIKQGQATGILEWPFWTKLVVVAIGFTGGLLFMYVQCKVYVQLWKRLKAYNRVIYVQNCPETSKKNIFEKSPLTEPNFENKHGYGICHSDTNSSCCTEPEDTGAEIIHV

[3] = molecular target: Flag-NLRP3 (NLR family pyrin domain containing 3) (UniProt Q96P20); assay: as above
Flag-OPTN (optineurin) = Flag-OPTN (optineurin) (UniProt Q96CV9); assay: co-IP; exogenous: tagged plasmids co-transfected into HEK293T for 24 h (some panels with CQ 50 μM 6 h, VANGL2 siRNA or VANGL2 overexpression); whole-cell lysates with anti-Flag or anti-Myc agarose beads; washed 5 times with low-salt lysis buffer (150 mM NaCl, 1% Triton X-100); immunoblot
Flag-VANGL2 [4] = molecular target: T1, Flag-VANGL2; assay: as above
Flag-VANGL2 [5] = molecular target: T1, Flag-VANGL2; assay: co-IP; exogenous, after cellular fractionation: HA-NLRP3 and Flag-VANGL2 in HEK293T, membrane and cytoplasmic fractions; Flag pulled down; immunoblot (short and long exposure)
Flag-NLRP3 K823R = Flag-NLRP3 K823R (UniProt Q96P20); assay: co-IP; exogenous: tagged plasmids co-transfected into HEK293T for 24 h (some panels with CQ 50 μM 6 h, VANGL2 siRNA or VANGL2 overexpression); whole-cell lysates with anti-Flag or anti-Myc agarose beads; washed 5 times with low-salt lysis buffer (150 mM NaCl, 1% Triton X-100); immunoblot
[6] = molecular target: Flag-NLRP3 (NLR family pyrin domain containing 3) (UniProt Q96P20); assay: as above
[7] = molecular target: Flag-NLRP3 (NLR family pyrin domain containing 3) (UniProt Q96P20); assay: co-IP; three-step co-IP: HEK293T with Flag-NLRP3, HA-VANGL2, GFP-MARCH8 and Myc-OPTN; Flag-beads, Flag peptide elution; HA-beads, HA peptide elution; GFP-beads; western blot
[8] = molecular target: T3, HA-VANGL2 (Van-Gogh-like 2) (UniProt Q9ULK5); assay: as above
T3 sequence: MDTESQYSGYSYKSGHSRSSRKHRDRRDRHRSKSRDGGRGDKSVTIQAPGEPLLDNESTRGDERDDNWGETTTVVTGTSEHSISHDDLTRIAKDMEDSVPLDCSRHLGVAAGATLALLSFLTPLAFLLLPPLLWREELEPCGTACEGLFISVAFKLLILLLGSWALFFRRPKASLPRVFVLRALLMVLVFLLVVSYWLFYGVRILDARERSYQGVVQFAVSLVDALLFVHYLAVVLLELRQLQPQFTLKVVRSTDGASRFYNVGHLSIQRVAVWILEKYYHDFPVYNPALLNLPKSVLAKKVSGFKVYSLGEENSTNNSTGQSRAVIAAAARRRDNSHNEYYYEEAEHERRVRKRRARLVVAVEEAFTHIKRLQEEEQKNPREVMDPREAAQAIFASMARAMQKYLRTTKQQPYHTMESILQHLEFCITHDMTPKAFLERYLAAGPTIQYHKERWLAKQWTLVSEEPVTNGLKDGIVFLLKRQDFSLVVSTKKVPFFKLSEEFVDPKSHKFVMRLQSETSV

[9] = molecular target: T4, VANGL2, endogenous in mouse peritoneal macrophages (mouse (endogenous in peritoneal macrophages)) (UniProt Q91ZD4); assay: co-IP; endogenous, after cellular fractionation: LPS-treated PEMs, cytoplasmic and cell membrane fractions; VANGL2 pulled down by IP; immunoblot
T4 sequence: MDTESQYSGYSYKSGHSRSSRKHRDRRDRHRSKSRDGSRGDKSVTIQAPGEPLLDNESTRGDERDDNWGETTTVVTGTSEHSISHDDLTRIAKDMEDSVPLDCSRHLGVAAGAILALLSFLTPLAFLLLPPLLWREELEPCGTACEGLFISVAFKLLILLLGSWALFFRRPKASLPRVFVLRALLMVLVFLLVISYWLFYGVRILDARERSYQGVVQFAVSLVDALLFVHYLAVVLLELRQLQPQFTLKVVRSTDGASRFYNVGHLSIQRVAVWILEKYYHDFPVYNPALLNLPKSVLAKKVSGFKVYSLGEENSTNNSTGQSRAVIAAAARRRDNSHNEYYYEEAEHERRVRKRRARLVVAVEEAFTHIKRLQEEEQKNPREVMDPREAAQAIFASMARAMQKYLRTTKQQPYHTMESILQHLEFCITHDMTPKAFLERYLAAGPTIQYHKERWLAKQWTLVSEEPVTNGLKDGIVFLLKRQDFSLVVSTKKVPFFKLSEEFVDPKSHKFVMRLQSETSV

[10] = molecular target: OPTN, endogenous in mouse peritoneal macrophages (mouse (endogenous in peritoneal macrophages)) (UniProt Q8K3K8); assay: co-IP; endogenous: mouse PEMs (WT or Vangl2 ΔM/ΔM) treated with LPS 100 ng/ml 6 h (some panels with CQ 50 μM); whole-cell lysates incubated overnight with antibody plus Protein A/G beads; immunoblot
[11] = molecular target: NLRP3, endogenous in mouse peritoneal macrophages (mouse (endogenous in peritoneal macrophages)) (UniProt Q8R4B8); assay: as above
[12] = molecular target: T4, VANGL2, endogenous in mouse peritoneal macrophages (mouse (endogenous in peritoneal macrophages)); assay: as above
[13] = molecular target: Flag-NLRP3 (NLR family pyrin domain containing 3) (UniProt Q96P20); assay: co-IP; exogenous: tagged plasmids co-transfected into HEK293T for 24 h (some panels with CQ 50 μM 6 h, VANGL2 siRNA or VANGL2 overexpression); whole-cell lysates with anti-Flag or anti-Myc agarose beads; washed 5 times with low-salt lysis buffer (150 mM NaCl, 1% Triton X-100); immunoblot; remark: listed apart in the source
Flag-VANGL2 [14] = molecular target: T1, Flag-VANGL2; assay: as above; remark: listed apart in the source

With “Flag-NLRP3 (NLR family pyrin domain containing 3) (from UniProt Q96P20 1-1036)” the binding (Flag-VANGL2 [1]) was “binds”.

For “Flag-OPTN (optineurin) (from UniProt Q96CV9 1-577)”, the binding [2] was “no binding”, the binding [3] was “binds” and the binding (Flag-VANGL2 [1]) was “binds”.

HA-NLRP3 (from UniProt Q96P20 1-1036) was tested, and the binding (Flag-OPTN (optineurin)) was “binds”, the binding (Flag-VANGL2 [4]) was “binds” and the binding (Flag-VANGL2 [5]) was “binds”.

HA-OPTN (from UniProt Q96CV9 1-577) was tested, and the binding (Flag-NLRP3 K823R) was “binds” and the binding [6] was “binds”.

In the case of Myc-OPTN (from UniProt Q96CV9 1-577), the binding [7] is reported as “binds” and the binding [8] is reported as “binds”.

In the case of “NLRP3, endogenous in mouse peritoneal macrophages (from UniProt Q8R4B8 1-1033)”, the binding [9] is reported as “binds” and the binding [10] is reported as “binds”.

B1: VANGL2, endogenous in mouse peritoneal macrophages (protein, UniProt Q91ZD4 1-521)
chain: MDTESQYSGYSYKSGHSRSSRKHRDRRDRHRSKSRDGSRGDKSVTIQAPGEPLLDNESTRGDERDDNWGETTTVVTGTSEHSISHDDLTRIAKDMEDSVPLDCSRHLGVAAGAILALLSFLTPLAFLLLPPLLWREELEPCGTACEGLFISVAFKLLILLLGSWALFFRRPKASLPRVFVLRALLMVLVFLLVISYWLFYGVRILDARERSYQGVVQFAVSLVDALLFVHYLAVVLLELRQLQPQFTLKVVRSTDGASRFYNVGHLSIQRVAVWILEKYYHDFPVYNPALLNLPKSVLAKKVSGFKVYSLGEENSTNNSTGQSRAVIAAAARRRDNSHNEYYYEEAEHERRVRKRRARLVVAVEEAFTHIKRLQEEEQKNPREVMDPREAAQAIFASMARAMQKYLRTTKQQPYHTMESILQHLEFCITHDMTPKAFLERYLAAGPTIQYHKERWLAKQWTLVSEEPVTNGLKDGIVFLLKRQDFSLVVSTKKVPFFKLSEEFVDPKSHKFVMRLQSETSV
For B1, the binding [11] was “binds”.

B2: MARCH8, endogenous in mouse peritoneal macrophages (enzyme, UniProt Q9DBD2 1-286)
chain: MSMPLHQISAIPSQDAISARVYRSKTKDKEQNEKTLGHSMSHPSNISKAGSSPPSTTAPVSAFSRTSVTPSNQDICRICHCEGDDESPLITPCHCTGSLHFVHQACLQQWIKSSDTRCCELCKYEFIMETKLKPLRKWEKLQMTASERRKIMCSVTFHVIAITCVVWSLYVLIDRTAEEIKQGQVTGILEWPFWTKLVVVAIGFTGGLLFMYVQCKVYLQLWKRLKAYNRVIYVQNCPETSKKNIFEKSALTEPTLENKEGHGMCHSTTNSSCTEPEDTGAEIINV
With B2 the binding [12] was “binds” and the binding [11] was “binds”.

B3: GFP-MARCH8 (enzyme, UniProt Q5T0T0 1-291)
chain: MSMPLHQISAIPSQDAISARVYRSKTKEKEREEQNEKTLGHFMSHSSNISKAGSPPSASAPAPVSSFSRTSITPSSQDICRICHCEGDDESPLITPCHCTGSLHFVHQACLQQWIKSSDTRCCELCKYEFIMETKLKPLRKWEKLQMTSSERRKIMCSVTFHVIAITCVVWSLYVLIDRTAEEIKQGQATGILEWPFWTKLVVVAIGFTGGLLFMYVQCKVYVQLWKRLKAYNRVIYVQNCPETSKKNIFEKSPLTEPNFENKHGYGICHSDTNSSCCTEPEDTGAEIIHV
For B3, the binding [13] was “binds”, the binding (Flag-VANGL2 [14]) was “binds” and the binding [7] was “binds”. The binding [8] was “binds”.

B4: Flag-MARCH8 (recombinant, purified) (enzyme, UniProt Q5T0T0 1-291)
chain: MSMPLHQISAIPSQDAISARVYRSKTKEKEREEQNEKTLGHFMSHSSNISKAGSPPSASAPAPVSSFSRTSITPSSQDICRICHCEGDDESPLITPCHCTGSLHFVHQACLQQWIKSSDTRCCELCKYEFIMETKLKPLRKWEKLQMTSSERRKIMCSVTFHVIAITCVVWSLYVLIDRTAEEIKQGQATGILEWPFWTKLVVVAIGFTGGLLFMYVQCKVYVQLWKRLKAYNRVIYVQNCPETSKKNIFEKSPLTEPNFENKHGYGICHSDTNSSCCTEPEDTGAEIIHV
In the case of B4, the binding [3] is reported as “binds” and the binding (Flag-VANGL2 [1]) is reported as “binds”.
